In PMC9025068, “DNA-Binding Properties of a Novel Crenarchaeal Chromatin-Organizing Protein in Sulfolobus acidocaldarius” (Biomolecules, 2022):
Where a protein sequence is shown, tags need not be part of it. The exact form of at least one protein or probe is not confirmed. At least one verdict rests on a figure or table, not on a statement of the authors.

Biological target: T1, Sul12a (Sulfolobus acidocaldarius) (UniProt Q4JA12)
T1 sequence (looked up): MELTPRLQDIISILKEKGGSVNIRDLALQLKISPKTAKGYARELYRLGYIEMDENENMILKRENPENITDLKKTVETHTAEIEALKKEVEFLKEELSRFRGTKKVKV
Experiment: EMSA
Conditions: 20 mM Tris-HCl pH 8.0, 1 mM MgCl2, 0.1 mM DTT, 12.5% glycerol, 50 mM NaCl, 0.4 mM EDTA, 37 C 20 min, 0.1 nM 32P-DNA with 25 ug/mL salmon sperm DNA (radiolabelled EMSA), recombinant protein, residues 1-107, protein details: N-terminal His (pET-45b(+)), label: 5'-32P, probe letters rebuilt from the primers and the genome; for Kd: KDapp, salmon sperm DNA 25 ug/mL

Sequence: TTATGCATTGGAAAGAGACGATATAAAGAAAACTCTAGATAAACTTGACGGATTGGATAAGGAGGTAATAGAACTTAAGCCTTCTGCCTCATTAAACACGTCAACAGAACAGTCAAATAAGAACGAGGGTAATAAGTCTGAAGTGTCTGTTCCAATACCAGTAAGGGTAATAAATACTTTATGAAGAATTAGTGACATAGGATGTTTGATAAGTTATCGATAATTTTTAATAGTGATAGAAAGAGAAAGGTGCATTTGTCCAAAGCGATAACTGAAATATCTTTAAAATTAAAAGAGCAGCAGGATAGATTAGACGAAGCAATAAGGAGATTAAGGG (double strand) [Enrichment probe 9 (F1), Saci_1374]
- binding result (32 uM protein, single probe): binds
- Kd (F1 + F2 mixture): 3.9 µM
- Kd (F1 + F3 mixture): 2.3 µM
